Test results taken from patent US8492391B2, “Substituted 6-(2-hydroxybenzylamino)purine derivatives, their use as medicaments and compositions containing these derivatives” (Univerzita Palackeho V Olomouci, priority 2009, dated 2013).

Test system: β-adrenergic receptors
Experiment: Modulation of the activity of β-adrenergic receptors (isoproterenol-induced cAMP synthesis in C6 glioma)
Format: cell-based
Conditions: rat C6 glioma, cAMP synthesis induced by 5 μM (−) isoproterenol, 30 min
Method: Mechanism of action of novel compounds is presented on FIG. 2. Rat C6 glioma (ATCC No CCL 107) was cultivated in monolayer in serum-free chemically defined medium containing Ham's F10/minimal essential medium (1:1 vol/vol), 2 mM L-glutamine, 1% (vol/vol) minimal essential medium vitamins (100×), 1% (vol/vol) minimal essential medium nonessential amino acids (100×), 100 U/ml penicillin, 100 μg/ml streptomycin and 30 nM sodium selenite. Incubation was at 37° C. in a humidified atmosphere. Assays were performed in the logaritmic growth phase at a density of 2.5×10^5 cells/cm^2. Intracellular cAMP synthesis was induced by addition of 5 μM (−) isoproterenol. After 30 min incubation at 37° C. the medium was removed and the cellular amount of cAMP determined using the cAMP-enzyme immunoassay kit of Amersham. The I50 is determined from a dose-response curve in duplicate. The effect of several novel substituted 6-(2-hydroxybenzylamino)purine derivatives was measured after simultaneous addition with isoproterenol.
As P2Y1-like and A2 purinergic receptors, negatively and positively coupled to adenylate cyclase respectively, are present on rat C6 glioma. It has to be determined if the modulation of the synthesis of cAMP is due to inhibition of the activation of β-adrenergic receptors by isoproterenol are due to activation of purinergic receptors.

With `CC[C@H](CO)Nc1nc(NCc2ccccc2)c2ncn(C(C)C)c2n1` [ROSC, roscovitine, reference compound] the “IC50 (μM) (modulation of the activity of β-adrenergic receptors)” value was “inactive”.
